According to US11369590B2, “PSMA binding ligand-linker conjugates and methods for using” (Purdue Research Foundation, priority 2007, dated 2022):
At least one structure is not confirmed: it was looked up by name or label, or the drawing left a doubt. *1 amine or outer side, *2 acyl side, *3 side chain or, on linkers, in order; H or OH if unused. Where a SMILES comes first, the peptide text is derived from it. Side-chain parts run from the residue outwards. [ ]: non-standard residue; d: D form. γGlu = O=C(O)[C@H](CCC(=O)[*:2])N[*:1]; Dap = NC[C@H](N)C(=O)O; Aoc = NCCCCCCCC(=O)O; CO = O=C([*:1])[*:2]

The chains behind the UniProt entries cited, without tags or fusion partners.
UniProt Q04609, whole entry: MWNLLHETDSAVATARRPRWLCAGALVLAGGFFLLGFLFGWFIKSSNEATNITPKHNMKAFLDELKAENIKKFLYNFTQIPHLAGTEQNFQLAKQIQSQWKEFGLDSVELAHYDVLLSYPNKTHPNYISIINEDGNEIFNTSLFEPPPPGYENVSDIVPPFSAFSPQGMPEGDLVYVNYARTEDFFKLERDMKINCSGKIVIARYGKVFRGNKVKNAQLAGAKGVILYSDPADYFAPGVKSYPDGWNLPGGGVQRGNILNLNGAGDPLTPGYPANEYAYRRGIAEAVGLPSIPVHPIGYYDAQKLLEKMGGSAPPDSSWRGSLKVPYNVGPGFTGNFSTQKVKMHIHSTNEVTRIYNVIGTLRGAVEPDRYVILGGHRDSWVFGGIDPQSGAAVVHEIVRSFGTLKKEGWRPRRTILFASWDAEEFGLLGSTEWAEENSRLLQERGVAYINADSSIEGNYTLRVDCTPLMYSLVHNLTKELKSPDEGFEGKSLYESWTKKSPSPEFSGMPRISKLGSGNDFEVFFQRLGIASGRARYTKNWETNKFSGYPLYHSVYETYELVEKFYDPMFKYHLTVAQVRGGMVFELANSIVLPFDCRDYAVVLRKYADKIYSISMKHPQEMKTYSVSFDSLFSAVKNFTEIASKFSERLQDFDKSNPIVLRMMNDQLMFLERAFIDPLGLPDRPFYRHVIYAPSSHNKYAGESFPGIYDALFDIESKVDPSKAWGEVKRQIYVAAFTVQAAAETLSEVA

What was measured:
[1] = target: T1, PSMA (Homo sapiens, UniProt Q04609); assay: Spacer-dependent binding studies of DUPA-Linker-99mTc on LNCaP cells; design: LNCaP cells (a human prostate cancer cell line over-expressing PSMA); host or cells: LNCaP; conditions: DUPA-Linker-99mTc imaging agents, 37° C. 1 hour, FIG. 3A
[2] = target: T1, PSMA; conditions: PSMA ligand of formula drawing 51, R^1 as drawn; cited from earlier work

SMILES	Kd [1]	Ki [2]
N[C@@H](CNC(=O)CC[C@H](NC(=O)[C@H](Cc1ccccc1)NC(=O)CCCCCCCNC(=O)CC[C@H](NC(=O)N[C@@H](CCC(=O)O)C(=O)O)C(=O)O)C(=O)O)C(=O)N[C@@H](CC(=O)O)C(=O)N[C@@H](CS)C(=O)O [SK38-99 mTc] (H-[Dap]([γGlu-Phe-Aoc-γGlu-CO-Glu])-Asp-Cys-OH)	40 nM	
N[C@@H](CNC(=O)[C@H](Cc1ccccc1)NC(=O)CC[C@H](NC(=O)CC[C@H](NC(=O)N[C@@H](CCC(=O)O)C(=O)O)C(=O)O)C(=O)O)C(=O)N[C@@H](CC(=O)O)C(=O)N[C@@H](CS)C(=O)O [SK62-99 mTc] (H-[Dap]([Phe-γGlu-γGlu-CO-Glu])-Asp-Cys-OH)	68 nM	
O=C(O)CCC(NC(=O)NC(CS)C(=O)O)C(=O)O (stereo not shown) [drawing 52 (R = H)]		6.9 nM
CC(C)(C)SCC(NC(=O)NC(CCC(=O)O)C(=O)O)C(=O)O (stereo not shown) [drawing 52 (R = tert-Bu)]		29 nM
